According to the supplement of paper PMC12067093, “Discovery and optimisation of a covalent ligand for TRIM25 and its application to targeted protein ubiquitination” (Chemical Science, 2025):
This is one part of the list.

Protein sequences, listed by entry. Tags and fused reporters are not part of them. Lines headed by an entry give the natural chain unless they say otherwise; changes in a name come on top.
UniProt Q5VZ89: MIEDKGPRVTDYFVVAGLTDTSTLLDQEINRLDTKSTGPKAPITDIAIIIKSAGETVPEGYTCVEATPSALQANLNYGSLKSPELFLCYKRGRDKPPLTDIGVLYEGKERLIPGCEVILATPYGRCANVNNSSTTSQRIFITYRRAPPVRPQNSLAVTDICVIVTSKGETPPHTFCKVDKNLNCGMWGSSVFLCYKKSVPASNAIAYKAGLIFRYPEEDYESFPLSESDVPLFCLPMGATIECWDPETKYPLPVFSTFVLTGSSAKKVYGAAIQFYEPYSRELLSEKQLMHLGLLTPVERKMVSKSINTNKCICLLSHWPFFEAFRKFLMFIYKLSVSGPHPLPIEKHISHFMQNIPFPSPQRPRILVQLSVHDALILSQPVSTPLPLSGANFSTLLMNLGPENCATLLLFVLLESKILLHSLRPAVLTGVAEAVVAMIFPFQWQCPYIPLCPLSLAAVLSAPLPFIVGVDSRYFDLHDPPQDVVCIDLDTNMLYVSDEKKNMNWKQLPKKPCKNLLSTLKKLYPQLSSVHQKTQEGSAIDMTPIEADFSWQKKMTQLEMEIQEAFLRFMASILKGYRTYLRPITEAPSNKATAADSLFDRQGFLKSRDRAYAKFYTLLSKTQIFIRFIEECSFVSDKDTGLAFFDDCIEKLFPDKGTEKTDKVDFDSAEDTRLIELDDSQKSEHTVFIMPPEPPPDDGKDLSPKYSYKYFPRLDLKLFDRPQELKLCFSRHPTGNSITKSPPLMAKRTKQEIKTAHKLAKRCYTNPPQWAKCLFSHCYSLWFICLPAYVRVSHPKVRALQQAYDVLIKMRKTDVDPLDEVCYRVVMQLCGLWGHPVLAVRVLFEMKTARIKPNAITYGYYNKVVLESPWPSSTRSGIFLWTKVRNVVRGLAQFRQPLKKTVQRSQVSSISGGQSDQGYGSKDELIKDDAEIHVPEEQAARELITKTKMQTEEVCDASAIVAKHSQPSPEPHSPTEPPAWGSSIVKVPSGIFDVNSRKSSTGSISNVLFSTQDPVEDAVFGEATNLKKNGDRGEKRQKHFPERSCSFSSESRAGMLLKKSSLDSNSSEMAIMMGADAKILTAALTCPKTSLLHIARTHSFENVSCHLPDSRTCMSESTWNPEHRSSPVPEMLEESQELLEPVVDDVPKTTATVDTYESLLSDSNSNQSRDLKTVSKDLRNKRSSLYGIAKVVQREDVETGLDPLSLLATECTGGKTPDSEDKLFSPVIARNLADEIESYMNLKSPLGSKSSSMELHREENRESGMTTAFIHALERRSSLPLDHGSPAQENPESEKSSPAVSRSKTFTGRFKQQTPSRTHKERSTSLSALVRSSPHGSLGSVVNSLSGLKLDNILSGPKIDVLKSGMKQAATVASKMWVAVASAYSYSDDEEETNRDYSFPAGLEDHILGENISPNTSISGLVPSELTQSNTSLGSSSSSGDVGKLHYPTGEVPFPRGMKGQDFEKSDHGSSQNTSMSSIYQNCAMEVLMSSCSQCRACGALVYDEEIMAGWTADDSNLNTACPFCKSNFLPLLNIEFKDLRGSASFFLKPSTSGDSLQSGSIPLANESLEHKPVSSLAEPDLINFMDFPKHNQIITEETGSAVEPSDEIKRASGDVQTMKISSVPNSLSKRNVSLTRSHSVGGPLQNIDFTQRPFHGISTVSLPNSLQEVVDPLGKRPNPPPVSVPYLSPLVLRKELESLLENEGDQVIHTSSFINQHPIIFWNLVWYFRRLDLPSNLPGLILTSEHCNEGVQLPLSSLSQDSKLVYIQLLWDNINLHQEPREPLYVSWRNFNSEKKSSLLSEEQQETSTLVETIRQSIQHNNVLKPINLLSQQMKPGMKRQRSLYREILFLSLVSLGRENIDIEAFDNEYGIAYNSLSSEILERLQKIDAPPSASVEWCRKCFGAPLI
UniProt O95786: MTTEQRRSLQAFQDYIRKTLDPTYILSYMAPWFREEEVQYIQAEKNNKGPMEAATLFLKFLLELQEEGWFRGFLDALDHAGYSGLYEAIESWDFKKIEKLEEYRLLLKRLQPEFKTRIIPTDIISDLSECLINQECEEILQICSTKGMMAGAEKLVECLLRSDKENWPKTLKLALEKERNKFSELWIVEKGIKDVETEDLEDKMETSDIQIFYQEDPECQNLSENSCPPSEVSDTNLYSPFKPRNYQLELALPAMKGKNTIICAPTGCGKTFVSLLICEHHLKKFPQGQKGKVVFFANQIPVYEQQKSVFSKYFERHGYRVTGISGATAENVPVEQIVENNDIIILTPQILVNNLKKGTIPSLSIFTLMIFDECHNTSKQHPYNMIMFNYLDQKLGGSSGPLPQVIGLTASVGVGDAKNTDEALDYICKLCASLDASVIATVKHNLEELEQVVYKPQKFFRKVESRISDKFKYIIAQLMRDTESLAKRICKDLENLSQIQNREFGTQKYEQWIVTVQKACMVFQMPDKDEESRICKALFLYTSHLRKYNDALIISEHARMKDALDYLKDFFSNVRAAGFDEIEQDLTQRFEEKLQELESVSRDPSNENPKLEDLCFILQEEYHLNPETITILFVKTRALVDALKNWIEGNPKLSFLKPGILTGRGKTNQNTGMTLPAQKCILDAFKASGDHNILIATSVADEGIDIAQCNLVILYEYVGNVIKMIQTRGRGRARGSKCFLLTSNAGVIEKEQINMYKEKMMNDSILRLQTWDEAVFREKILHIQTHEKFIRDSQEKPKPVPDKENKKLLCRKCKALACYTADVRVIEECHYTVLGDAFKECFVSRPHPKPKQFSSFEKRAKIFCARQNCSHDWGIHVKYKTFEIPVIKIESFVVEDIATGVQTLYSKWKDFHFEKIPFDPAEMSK
UniProt Q86XP3: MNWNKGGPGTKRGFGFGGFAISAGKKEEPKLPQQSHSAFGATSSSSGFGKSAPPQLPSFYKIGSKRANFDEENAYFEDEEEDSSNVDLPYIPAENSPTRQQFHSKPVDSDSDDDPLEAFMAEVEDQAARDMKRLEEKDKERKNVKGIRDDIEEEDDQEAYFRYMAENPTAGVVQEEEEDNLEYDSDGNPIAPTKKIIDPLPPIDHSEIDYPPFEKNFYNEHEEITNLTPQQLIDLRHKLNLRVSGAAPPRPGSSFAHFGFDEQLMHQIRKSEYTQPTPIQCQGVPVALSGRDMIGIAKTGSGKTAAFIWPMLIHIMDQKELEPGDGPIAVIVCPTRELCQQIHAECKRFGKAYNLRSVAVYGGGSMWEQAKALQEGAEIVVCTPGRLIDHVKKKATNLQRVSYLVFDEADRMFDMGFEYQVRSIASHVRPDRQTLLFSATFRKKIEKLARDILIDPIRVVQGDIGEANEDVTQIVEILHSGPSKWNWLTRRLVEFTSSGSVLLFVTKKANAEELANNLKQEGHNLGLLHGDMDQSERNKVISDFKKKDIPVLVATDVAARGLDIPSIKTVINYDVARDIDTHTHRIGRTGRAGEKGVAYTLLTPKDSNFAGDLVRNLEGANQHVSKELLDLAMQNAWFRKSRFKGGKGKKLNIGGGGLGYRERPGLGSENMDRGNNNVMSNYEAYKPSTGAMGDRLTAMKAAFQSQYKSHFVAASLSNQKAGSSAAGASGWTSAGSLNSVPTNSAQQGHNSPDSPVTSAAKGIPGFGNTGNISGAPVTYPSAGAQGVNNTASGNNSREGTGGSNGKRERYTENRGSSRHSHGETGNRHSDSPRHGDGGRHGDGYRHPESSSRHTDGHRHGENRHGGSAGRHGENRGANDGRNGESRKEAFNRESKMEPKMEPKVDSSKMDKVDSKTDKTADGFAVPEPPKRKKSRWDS
UniProt Q9H4E7, whole entry, looked up: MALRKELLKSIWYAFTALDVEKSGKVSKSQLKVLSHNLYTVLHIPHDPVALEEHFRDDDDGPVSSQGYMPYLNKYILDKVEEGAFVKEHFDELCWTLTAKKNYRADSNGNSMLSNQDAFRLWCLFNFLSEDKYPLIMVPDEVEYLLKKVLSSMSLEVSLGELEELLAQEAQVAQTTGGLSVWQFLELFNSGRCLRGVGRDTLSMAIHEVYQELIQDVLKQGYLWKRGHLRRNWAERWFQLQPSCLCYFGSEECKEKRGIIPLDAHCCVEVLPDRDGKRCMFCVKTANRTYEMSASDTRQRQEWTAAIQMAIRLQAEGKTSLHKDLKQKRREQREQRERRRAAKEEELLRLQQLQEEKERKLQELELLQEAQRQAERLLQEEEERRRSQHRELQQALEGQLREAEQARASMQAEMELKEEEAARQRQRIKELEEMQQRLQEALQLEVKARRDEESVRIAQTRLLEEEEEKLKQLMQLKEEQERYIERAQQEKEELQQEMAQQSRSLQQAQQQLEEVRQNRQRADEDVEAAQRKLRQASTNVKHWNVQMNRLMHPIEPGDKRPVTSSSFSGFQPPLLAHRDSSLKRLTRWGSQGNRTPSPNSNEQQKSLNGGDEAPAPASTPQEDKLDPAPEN
UniProt P23743: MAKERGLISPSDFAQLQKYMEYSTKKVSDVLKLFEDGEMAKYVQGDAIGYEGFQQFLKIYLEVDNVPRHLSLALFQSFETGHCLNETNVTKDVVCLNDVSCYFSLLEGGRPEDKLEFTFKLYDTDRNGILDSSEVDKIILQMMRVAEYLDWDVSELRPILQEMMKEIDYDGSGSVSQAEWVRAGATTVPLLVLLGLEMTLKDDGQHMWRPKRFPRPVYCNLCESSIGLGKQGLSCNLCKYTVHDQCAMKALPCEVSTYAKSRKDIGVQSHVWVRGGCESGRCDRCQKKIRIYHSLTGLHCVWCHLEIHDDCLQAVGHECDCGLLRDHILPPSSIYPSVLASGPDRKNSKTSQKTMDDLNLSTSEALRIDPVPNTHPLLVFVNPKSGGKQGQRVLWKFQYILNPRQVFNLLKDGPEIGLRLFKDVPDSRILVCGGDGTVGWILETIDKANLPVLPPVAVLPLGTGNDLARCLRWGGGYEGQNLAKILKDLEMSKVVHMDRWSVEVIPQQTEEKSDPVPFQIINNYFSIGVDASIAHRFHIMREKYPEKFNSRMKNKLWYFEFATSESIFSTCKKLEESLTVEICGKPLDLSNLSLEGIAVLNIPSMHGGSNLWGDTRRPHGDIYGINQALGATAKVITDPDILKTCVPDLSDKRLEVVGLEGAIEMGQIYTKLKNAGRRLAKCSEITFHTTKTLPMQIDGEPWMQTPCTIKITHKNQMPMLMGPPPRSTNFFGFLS
UniProt Q92499: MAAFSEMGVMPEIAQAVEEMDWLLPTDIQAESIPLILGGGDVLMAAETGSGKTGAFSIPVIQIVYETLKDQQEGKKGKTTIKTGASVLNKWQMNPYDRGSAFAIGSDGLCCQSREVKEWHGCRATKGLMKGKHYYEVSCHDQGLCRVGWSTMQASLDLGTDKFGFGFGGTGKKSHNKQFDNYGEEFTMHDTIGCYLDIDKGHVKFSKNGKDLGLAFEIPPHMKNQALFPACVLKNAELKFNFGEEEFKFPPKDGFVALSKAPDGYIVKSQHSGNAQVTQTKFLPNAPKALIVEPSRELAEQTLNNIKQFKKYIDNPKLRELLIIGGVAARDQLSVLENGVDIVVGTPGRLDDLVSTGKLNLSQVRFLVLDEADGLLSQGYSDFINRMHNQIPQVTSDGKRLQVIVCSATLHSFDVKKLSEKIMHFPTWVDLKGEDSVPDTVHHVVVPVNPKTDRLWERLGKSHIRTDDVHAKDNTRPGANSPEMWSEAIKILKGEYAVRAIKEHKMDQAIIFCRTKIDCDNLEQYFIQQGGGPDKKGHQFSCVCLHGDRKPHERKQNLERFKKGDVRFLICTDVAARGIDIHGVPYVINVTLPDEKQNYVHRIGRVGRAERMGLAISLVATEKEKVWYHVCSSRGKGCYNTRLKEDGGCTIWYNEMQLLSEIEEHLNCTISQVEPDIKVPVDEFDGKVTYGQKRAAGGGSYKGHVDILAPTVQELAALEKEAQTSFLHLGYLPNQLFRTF
UniProt O00571: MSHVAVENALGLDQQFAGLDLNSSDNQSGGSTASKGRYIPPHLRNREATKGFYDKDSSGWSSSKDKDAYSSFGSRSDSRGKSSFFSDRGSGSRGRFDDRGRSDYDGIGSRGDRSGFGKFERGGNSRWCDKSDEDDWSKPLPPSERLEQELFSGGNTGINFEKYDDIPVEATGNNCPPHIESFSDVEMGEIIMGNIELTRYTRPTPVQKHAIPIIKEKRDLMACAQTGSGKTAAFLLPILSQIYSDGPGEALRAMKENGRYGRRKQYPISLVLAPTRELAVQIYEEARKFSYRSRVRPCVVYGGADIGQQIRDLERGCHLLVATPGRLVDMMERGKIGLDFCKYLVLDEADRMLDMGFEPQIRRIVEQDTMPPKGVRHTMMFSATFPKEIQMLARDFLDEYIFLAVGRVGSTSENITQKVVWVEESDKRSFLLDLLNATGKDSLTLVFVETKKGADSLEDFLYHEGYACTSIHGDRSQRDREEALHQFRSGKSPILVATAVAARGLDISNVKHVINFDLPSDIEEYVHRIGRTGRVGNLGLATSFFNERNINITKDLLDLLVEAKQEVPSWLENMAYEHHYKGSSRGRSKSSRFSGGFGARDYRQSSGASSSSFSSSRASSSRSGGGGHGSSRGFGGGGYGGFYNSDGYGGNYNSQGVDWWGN

Compound: Cc1cc(ccc1-c1ccccc1)C(=O)N1CCCN(CC1)C(=O)CCl [compound 10]
Experiment: probe-labelled cysteine peptide fold change vs DMSO (competition) (log2 fold change); higher = less target engagement (more negative = stronger competition)
Conditions: THP-1, incubation time: 4 h
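Further: competitive profiling in live THP-1 cells: cysteine peptides tagged with an iodoacetamide desthiobiotin (IA-DTB) probe, intensity after compound treatment relative to DMSO-treated cells.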

Target | probe-labelled cysteine peptide fold change (10 µM) | probe-labelled cysteine peptide fold change (50 µM)
DDX46_Q7L014_590_SVVCSDVEQQVIVIEEEK (UniProt Q7L014) | -0.0827 | -0.0152
DDX17_Q92841_584_TTSSANNPNLMYQDECDR (UniProt Q92841) | 0.301 | 0.236
DGKZ_Q13574_905_WCFLDATTASR (UniProt Q13574) | -0.051 | 0.222
DENND4C_Q5VZ89_1211_EDVETGLDPLSLLATECTGGK (UniProt Q5VZ89) | -0.234 | -0.0261
DENND3_A2RUS2_801_TECDLWHLMVK (UniProt A2RUS2) | -0.103 | -0.116
DECR2_Q9NUI1_53_HGCHTVIASR (UniProt Q9NUI1) | 0.299 | 0.399
DDX17_Q92841_166_GGDVCPKPVFAFHHANFPQYVMDVLMDQHFTEPTPIQCQGFPLALSGR (UniProt Q92841) | -0.0129 | -0.437
DGKE_P52429_167_TVHDECMK (UniProt P52429) | -0.082 | -0.168
DDX60L_Q5H9U9_938_CLNFLQDHSYK (UniProt Q5H9U9) | -0.0982 | 0.109
DDX39B_Q13838_239_EIRPVCR (UniProt Q13838) | -0.102 | 0.105
DHCR24_Q15392_393_CLQQALHTFQNDIHVYPIWLCPFILPSQPGLVHPK (UniProt Q15392) | -0.136 | 0.103
DDX31_Q9H8H2_464_AVQEVCPPPAGDK (UniProt Q9H8H2) | 0.042 | 0.476
DDX17_Q92841_431_CDDLTR (UniProt Q92841) | -0.174 | 0.402
DDX58_O95786_869_QNCSHDWGIHVK (UniProt O95786) | -0.162 | -0.146
DDX6_P26196_361_KISQLGYSCFYIHAK (UniProt P26196) | -0.0496 | 0.284
DENND3_A2RUS2_723_NECVCK (UniProt A2RUS2) | 0.0378 | -0.337
DDX42_Q86XP3_339+346_ELCQQIHAECK (UniProt Q86XP3) | -0.0649 | -0.047
DDX58_O95786_680_CILDAFK (UniProt O95786) | -0.0369 | -0.629
DEF6_Q9H4E7_266_GIIPLDAHCCVEVLPDRDGKR (UniProt Q9H4E7) | 0.106 | -0.227
DDB1_Q16531_260_QSTIVCHNR (UniProt Q16531) | 0.123 | 0.0811
DENND4A_Q7Z401_952_GSADCLPK (UniProt Q7Z401) | -0.312 | 0.101
DGKA_P23743_253_ALPCEVSTYAK (UniProt P23743) | -0.145 | -0.455
DGLUCY_Q7Z3D6_100_YEFGACTGSLASLEQYSEQLK (UniProt Q7Z3D6) | 0.179 | -0.106
DDX1_Q92499_519_TKIDCDNLEQYFIQQGGGPDK (UniProt Q92499) | -0.159 | -0.326
DENND4A_Q7Z401_648_DASLAFFDDCVDK (UniProt Q7Z401) | -0.0249 | 0.317
DDHD2_O94830_470_ESEFCSSSNTR (UniProt O94830) | -0.28 | -0.538
DDX1_Q92499_406_RLQVIVCSATLHSFDVK (UniProt Q92499) | -0.0399 | 0.166

Target | probe-labelled cysteine peptide fold change (10 µM) | probe-labelled cysteine peptide fold change (50 µM)
DDX3X_O00571_468_KGADSLEDFLYHEGYACTSIHGDR (UniProt O00571) | 0.0737 | -0.117
DDX41_Q9UJV9_427_MVYLLECLQK (UniProt Q9UJV9) | 0.211 | 0.12
DDX46_Q7L014_590_SVVCSDVEQQVIVIEEEKK (UniProt Q7L014) | -0.261 | -0.261
DDX42_Q86XP3_346_ELCQQIHAECK (UniProt Q86XP3) | 0.127 | 0.218
DDX10_Q13206_392_GLDFPAVNWVLQFDCPEDANTYIHR (UniProt Q13206) | 0.0564 | 0.575
DDX42_Q86XP3_281_KSEYTQPTPIQCQGVPVALSGR (UniProt Q86XP3) | -0.179 | -0.1
DDX60L_Q5H9U9_1201_ILEISEDCTYADVK (UniProt Q5H9U9) | 0.128 | 0.448
DGKZ_Q13574_697_VVCDGMDLTPK (UniProt Q13574) | 0.0849 | -0.0655
DDX21_Q9NR30_378_KDSEDNPQTLLFSATCPHWVFNVAK (UniProt Q9NR30) | -0.046 | -0.143
DDX59_Q5T1V6_208_QQLGILVQGQEVTRPIIDFEHCSLPEVLNHNLKK (UniProt Q5T1V6) | -0.0669 | -0.4
DGKZ_Q13574_330_IVVHTPCIEQLEK (UniProt Q13574) | 0.234 | -0.0271
DDX17_Q92841_166_GGDVCPK (UniProt Q92841) | 0.0712 | 0.22
DEF6_Q9H4E7_267_GIIPLDAHCCVEVLPDR (UniProt Q9H4E7) | 0.0885 | -0.00985
DDX1_Q92499_519_IDCDNLEQYFIQQGGGPDKK (UniProt Q92499) | -0.0404 | -0.14
DEF6_Q9H4E7_267_RGIIPLDAHCCVEVLPDRDGK (UniProt Q9H4E7) | 0.247 | -0.0747
DHPS_P49366_177_IGNLLVPNENYCK (UniProt P49366) | -0.153 | -0.161
DDX20_Q9UHI6_181_CHIAVGSPGR (UniProt Q9UHI6) | 0.143 | -0.0618
DDX51_Q8N8A6_253_GGYRPSDLCVSAPTGSGK (UniProt Q8N8A6) | -0.0905 | 0.262
DDX42_Q86XP3_333_ELEPGDGPIAVIVCPTR (UniProt Q86XP3) | -0.0523 | 0.124
DGKA_P23743_432_ILVCGGDGTVGWILETIDK (UniProt P23743) | 0.251 | 0.141
DGLUCY_Q7Z3D6_265_APPGCLTPER (UniProt Q7Z3D6) | -0.239 | -0.427
DENND4C_Q5VZ89_1211_VVQREDVETGLDPLSLLATECTGGK (UniProt Q5VZ89) | -0.182 | 0.0107
DDX3X_O00571_128_WCDKSDEDDWSK (UniProt O00571) | -0.303 | -1.35
DGKZ_Q13574_876_EASVPLGTVVVPGDSDLELCR (UniProt Q13574) | 0.00657 | 0.818
DDX54_Q8TDD1_149_TACFLLPMFER (UniProt Q8TDD1) | 0.0592 | 0.213
DDX24_Q9GZR7_639_LEDCVLLATDVAAR (UniProt Q9GZR7) | 0.213 | 0.377
DDX18_Q9NVP1_329_NLQCLVIDEADRILDVGFEEELK (UniProt Q9NVP1) | 0.153 | -0.181
